Assay results from PubChem BioAssay AID2417 (National Center for Advancing Translational Sciences (NCATS), 2010).
About 4,300 (3.1%) of roughly 140,000 compounds were called active. This list was built around the results that the source calls inconclusive (neither active nor inactive); the mix of calls is not that of the screen.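 The calls were made as follows: active = readout at or below -70, meaning at least 70% loss of cells showing the perinucleolar compartment, a nuclear body marking cancer cells; inconclusive = readout between -30 and a set limit; inactive = the rest.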

Assay: High Content Assay for Compounds that inhibit the Assembly of the Perinucleolar Compartment;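 also: plate controls were DMSO wells for no effect and camptothecin positive control wells for full effect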
Conditions: PC3M PTB-GFP, PNC prevalence imaging, 16 h; at 10 µM; active compounds read low
In short: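 Compounds are pinned in duplicate onto adhered PC3M cells stably expressing GFP-tagged PTB and incubated 16 h at 37 C. Cells are then fixed, nuclei stained with Hoechst, and PNC-positive cells counted.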

Structure (SMILES)	activity change (PNC), negative = inhibition
CCOC(=O)N1CCC(NC(=O)CCCN2C(=O)CSc3ncccc32)CC1	inconclusive: -31%
CN(C)CCSc1nnc2[nH]c3ccccc3c2n1	inactive: 54.8%
COc1cccc(C(=O)Nc2cccc(-c3nnc(-c4ccco4)o3)c2)c1	inactive: -2.12%
COc1ccc(OC)c(-c2nnc(SCC(=O)N3CCCc4ccccc43)o2)c1	inactive: 20.4%
O=C(c1cccs1)N1CCC(c2nc3c(nnn3Cc3ccccc3)c(=O)[nH]2)CC1	inactive: 15.9%
CC(C)(C)C(=O)NNc1nc(-c2ccccc2)c2cc(Br)ccc2n1	inconclusive: -47.5%
CCOC(=O)N1CCC(NC(=O)CCC(=O)N2CC(C)Oc3ccccc32)CC1 (stereo not drawn)	inconclusive: -45.3%
CCCCNC(=O)CSc1nc2ccc(NC(=O)CSc3nnc(N)s3)cc2s1	inconclusive: -37.1%
COc1cccc2cc(C(=O)N3CCN(C(=O)c4ccco4)CC3)c(=O)oc12	inconclusive: -55.8%
COc1ccc(CN=CC2=C(O)CNC2=O)cc1OC	inconclusive: -30.7%
CC(C)(C)c1nc(SCC(=O)Nc2nc3c(s2)CCCC3)c2ccccc2n1	active: -94.8%
O=C(CCCCCn1c(=S)[nH]c2ccccc2c1=O)N1CCOCC1	inactive: 10.7%
N#Cc1c(-n2cccc2/C=N/O)sc2c1CCCC2	inconclusive: -36.1%
Cn1c(N)c(C(=O)c2ccc(C#N)cc2)c(=O)n(C)c1=O	inactive: -6.11%
CCn1cc(/C=C/C(=O)Nc2c(C)nn(Cc3ccccc3C)c2C)cn1	inconclusive: -65%
CC(C)C(OC(=O)c1ccco1)C(=O)NCc1ccco1 (stereo not drawn)	inconclusive: -34.6%
O=C(COc1ccc(S(=O)(=O)NCc2ccccc2)cc1)N1CCOCC1	inconclusive: -44.6%
S=C(Nc1ccccn1)c1ccccn1	inactive: 26%
Cc1ccc2c(C)nc(Nc3nc(CSc4nnnn4-c4ccccc4)cc(=O)[nH]3)nc2c1	inconclusive: -39.1%
CCOc1ccc(C(=O)/C=C/Nc2ccc(S(=O)(=O)N=C(N)N)cc2)cc1	inconclusive: -56.4%

Structure (SMILES)	activity change (PNC), negative = inhibition
O=C(NC(=S)NNC(=O)c1ccc(Cl)cc1Cl)c1cccnc1	inconclusive: -33.2%
O=C(COc1ccccc1Cl)NC(=S)N1CCc2ccccc21	inconclusive: -34.1%
Oc1ccc(N2CCN(c3ncnc4sc5c(c34)CCC5)CC2)cc1	inconclusive: -47.6%
O=C(Cn1c(=O)n(Cc2ccccc2)c(=O)c2ccccc21)NCc1ccco1	inconclusive: -43.2%
Cc1cc(C)c(C#N)c(SCC(=O)NC(C)(C)C)n1	inconclusive: -41.5%
Nc1c(Cl)ncnc1N/N=C/c1ccnc2ccccc12	inconclusive: -43.1%
Cc1ccccc1-c1nc(Cc2ccc(Cl)cc2)no1	inconclusive: -39.8%
CCn1cc(/C=N\NC(=O)c2cc(-c3ccccc3OC)nc3ccccc23)c(C)n1	inconclusive: -47.8%
C/C(CCC(=O)O)=N/Nc1ccc([N+](=O)[O-])cc1[N+](=O)[O-]	active: -86.9%
Cc1cc2ccccn2c1C(=O)c1ccc(Cl)cc1	active: -105%
Cc1nc(-c2ccccc2)sc1C(=O)/C=C/c1ccc(Cl)cc1	inactive: 28.7%
Cc1ccc(C)c(NC(=O)Cc2nc(CCl)cs2)c1	inconclusive: -72.9%
O=S1(=O)N=C(Nc2nncs2)c2ccccc21	inactive: 22.1%
CC(C)c1ccc(NC(=O)C2CCCN(S(=O)(=O)c3cnc[nH]3)C2)cc1 (stereo not drawn)	inactive: 34.5%
CCOC(=O)c1snc(C(=O)NC2CCCCC2)c1N	inconclusive: -49%
Cc1ccc2[nH]c(-c3ccccc3)c(CN3CCOCC3)c(=O)c2c1	inconclusive: -58.1%
COc1ccccc1NC(=O)CSc1nnnn1Cc1ccccc1	inconclusive: -41.9%
COc1cccc2c(=O)c(SC(F)(F)C(F)C(F)(F)F)c(C)[nH]c12 (stereo not drawn)	inconclusive: -43.1%
COc1ccc(COCC(CC(C)C)N2CCN(C(=O)c3cccc(C(F)(F)F)c3)CCC2=O)cc1 (stereo not drawn)	inconclusive: -31.3%
CC(=O)c1c(C)[nH]c(C(=O)COc2cc(C)ccc2C(C)C)c1C	active: -86.4%

Structure (SMILES)	activity change (PNC), negative = inhibition
O/C(=C\Sc1nnc(Cc2ccccc2)o1)c1ccc(F)cc1	inconclusive: -32.4%
COc1ccc(NC(=O)c2ccccc2F)cc1Cl	inactive: -4.91%
O=c1c2sccc2nc(SCc2ccc([N+](=O)[O-])cc2)n1Cc1ccccn1	active: -84.3%
CN1CC2(C(=O)c3ccccc3)CN(C)CC(C(=O)c3ccccc3)(C1)C2	inconclusive: -34.6%
CCc1c(O)nc(SCC(=O)NCc2ccco2)[nH]c1=O	inconclusive: -49.3%
CSc1cccc(NC(=O)C2CCCN2S(=O)(=O)c2ccc(Br)s2)c1 (stereo not drawn)	inconclusive: -37.8%
O=C1CC(O)(C(F)(F)F)Oc2c1ccc1ccccc21 (stereo not drawn)	inconclusive: -43.9%
COC(=O)c1cc2ccsc2n1Cc1cc(=O)n2ccccc2n1	inconclusive: -61.4%
Cc1ccc2[nH]c(=O)c(CN(Cc3cccnc3)Cc3nnnn3CCN3CCOCC3)cc2c1	inactive: 18.2%
O=C(N/N=C/c1ccc(N2CCOCC2)o1)c1ccccc1[N+](=O)[O-]	inactive: 8.85%
COCCN(CCOC)S(=O)(=O)c1ccc(C(=O)Nc2nc(C)c(C(C)=O)s2)cc1	inconclusive: -52.3%
COc1ccc(-c2cc(CNC(=O)CN(C)Cc3ccccc3)on2)cc1	inactive: 64.7%
CCCC(=O)Nc1ccc(NC(=O)c2ccccc2Cl)nc1	active: -84%
CC(=O)C1=C(O)C(=O)N(c2cc(C(C)(C)C)on2)C1c1ccc(C(C)C)cc1 (stereo not drawn)	inconclusive: -33.3%
Cc1ccc2cc3c(NC(=O)c4ccco4)nn(C)c3nc2c1	inconclusive: -36.1%
Cc1cc(C(=O)OCC(=O)N2c3ccccc3CC2C)c(C)o1 (stereo not drawn)	inconclusive: -61.1%
O=C(COC(=O)c1c2c(nc3ccccc13)CCCCC2)c1ccc(Cl)s1	inactive: -28.7%
Cc1[nH]c2ccc(OC(=O)N3CCOCC3)cc2c1C(=O)OC(C)C	inconclusive: -58.6%

Sorted by formula weight (rising): part of the list above.
Structure (SMILES)	activity change (PNC), negative = inhibition
COc1ccc(CN=CC2=C(O)CNC2=O)cc1OC	inconclusive: -30.7%
Cc1ccccc1-c1nc(Cc2ccc(Cl)cc2)no1	inconclusive: -39.8%
Nc1c(Cl)ncnc1N/N=C/c1ccnc2ccccc12	inconclusive: -43.1%
Cc1ccc2cc3c(NC(=O)c4ccco4)nn(C)c3nc2c1	inconclusive: -36.1%
COC(=O)c1cc2ccsc2n1Cc1cc(=O)n2ccccc2n1	inconclusive: -61.4%
Cc1nc(-c2ccccc2)sc1C(=O)/C=C/c1ccc(Cl)cc1	inactive: 28.7%
COc1cccc(C(=O)Nc2cccc(-c3nnc(-c4ccco4)o3)c2)c1	inactive: -2.12%
CC(C)(C)C(=O)NNc1nc(-c2ccccc2)c2cc(Br)ccc2n1	inconclusive: -47.5%
COc1ccc(OC)c(-c2nnc(SCC(=O)N3CCCc4ccccc43)o2)c1	inactive: 20.4%
CCn1cc(/C=N\NC(=O)c2cc(-c3ccccc3OC)nc3ccccc23)c(C)n1	inconclusive: -47.8%
